Test [1] addresses T1, BAM3 extracellular domain (BAM3-ECD) (Arabidopsis thaliana) (UniProt O65440).
T1 sequence: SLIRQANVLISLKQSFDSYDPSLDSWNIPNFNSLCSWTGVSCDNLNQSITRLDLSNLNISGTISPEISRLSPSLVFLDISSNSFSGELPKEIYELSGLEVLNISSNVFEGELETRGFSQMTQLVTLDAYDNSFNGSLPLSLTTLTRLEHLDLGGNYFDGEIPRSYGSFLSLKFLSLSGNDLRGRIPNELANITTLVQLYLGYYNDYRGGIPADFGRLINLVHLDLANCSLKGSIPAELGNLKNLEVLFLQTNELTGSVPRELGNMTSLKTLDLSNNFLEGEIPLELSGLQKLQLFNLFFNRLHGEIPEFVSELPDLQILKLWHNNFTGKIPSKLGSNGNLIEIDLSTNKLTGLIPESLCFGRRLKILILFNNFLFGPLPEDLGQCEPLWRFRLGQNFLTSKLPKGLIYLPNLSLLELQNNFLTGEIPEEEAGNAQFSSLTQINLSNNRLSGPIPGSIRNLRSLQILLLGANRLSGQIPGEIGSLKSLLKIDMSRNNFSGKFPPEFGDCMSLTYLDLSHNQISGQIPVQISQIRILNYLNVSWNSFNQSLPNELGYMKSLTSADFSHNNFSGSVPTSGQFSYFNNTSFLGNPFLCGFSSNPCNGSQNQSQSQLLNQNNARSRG
Put plainly: SEC; analytical gel filtration without peptide, ectodomains stand-alone or in combination (equimolar); Superdex Increase 200, 20 mM citrate pH 5, 150 mM NaCl; both purified.

The chains behind the UniProt entries cited, without tags or fusion partners. Residues count along the entry.
UniProt O22476, residues 24-1196: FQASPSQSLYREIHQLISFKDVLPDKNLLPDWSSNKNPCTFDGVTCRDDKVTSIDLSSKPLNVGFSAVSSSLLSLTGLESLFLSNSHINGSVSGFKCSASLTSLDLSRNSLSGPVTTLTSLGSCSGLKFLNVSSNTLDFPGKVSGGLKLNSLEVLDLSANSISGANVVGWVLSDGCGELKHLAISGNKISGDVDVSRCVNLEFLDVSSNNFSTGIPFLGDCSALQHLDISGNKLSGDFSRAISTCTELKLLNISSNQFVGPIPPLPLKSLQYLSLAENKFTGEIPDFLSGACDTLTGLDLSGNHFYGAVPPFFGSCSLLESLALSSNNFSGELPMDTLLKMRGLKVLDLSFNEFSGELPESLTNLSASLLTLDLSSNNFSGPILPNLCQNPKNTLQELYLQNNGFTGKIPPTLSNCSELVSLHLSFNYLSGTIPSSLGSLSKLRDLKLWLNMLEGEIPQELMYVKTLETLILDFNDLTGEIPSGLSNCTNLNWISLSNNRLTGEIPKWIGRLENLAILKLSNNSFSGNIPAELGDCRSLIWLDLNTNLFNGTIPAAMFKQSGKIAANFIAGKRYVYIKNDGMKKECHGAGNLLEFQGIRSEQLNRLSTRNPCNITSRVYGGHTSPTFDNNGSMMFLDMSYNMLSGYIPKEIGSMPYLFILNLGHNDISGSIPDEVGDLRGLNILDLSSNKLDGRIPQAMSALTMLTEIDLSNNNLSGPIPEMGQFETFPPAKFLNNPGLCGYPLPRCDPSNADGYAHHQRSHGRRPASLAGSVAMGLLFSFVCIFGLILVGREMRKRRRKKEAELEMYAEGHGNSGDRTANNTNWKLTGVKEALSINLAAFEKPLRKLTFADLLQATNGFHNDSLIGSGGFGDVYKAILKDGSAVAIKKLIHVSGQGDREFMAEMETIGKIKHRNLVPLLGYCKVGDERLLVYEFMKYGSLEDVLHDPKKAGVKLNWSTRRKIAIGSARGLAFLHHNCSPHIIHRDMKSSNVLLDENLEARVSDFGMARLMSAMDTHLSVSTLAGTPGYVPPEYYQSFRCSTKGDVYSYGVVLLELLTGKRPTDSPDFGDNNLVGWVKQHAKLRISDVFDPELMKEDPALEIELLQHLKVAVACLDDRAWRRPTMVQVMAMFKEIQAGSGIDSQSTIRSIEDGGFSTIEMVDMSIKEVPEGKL

Test [2] concerns the target T1, BAM3 extracellular domain (BAM3-ECD) (Arabidopsis thaliana). As to the kind of experiment: condition: 82 μM SERK1-ECD titrated into 8.2 μM BAM3-ECD + 25 μM CLE45; ITC; SERK1-ECD (82 μM) titrated into BAM3-ECD (8.2 μM) + CLE45 (25 μM); Nano ITC, 25°C, 20 mM sodium citrate pH 5, 150 mM NaCl; both purified.
The target is the same in test [3]. Put plainly: condition: 100 μg of SERK1‐ECD and equimolar BAM3‐ECD with 25 μM CLE45; SEC; analytical gel filtration in the presence of 25 μM CLE45, equimolar ectodomains, 10 min incubation; Superdex Increase 200, 20 mM citrate pH 5, 150 mM NaCl; both purified. (SEC sorts molecules by how far they enter the pores of the column.)
Test [4] concerns the target SERK1 extracellular domain (SERK1-ECD) (Arabidopsis thaliana) (UniProt Q94AG2). As to the kind of experiment: SEC; analytical gel filtration without peptide, ectodomains stand-alone or in combination (equimolar); Superdex Increase 200, 20 mM citrate pH 5, 150 mM NaCl; both purified.
Test [5] addresses T1, BAM3 extracellular domain (BAM3-ECD) (Arabidopsis thaliana). Put plainly: condition: 100 μg of SERK1‐ECD and equimolar BAM3‐ECD; SEC; analytical gel filtration without peptide, ectodomains stand-alone or in combination (equimolar); Superdex Increase 200, 20 mM citrate pH 5, 150 mM NaCl; both purified.
The target in test [6] is BRI1 fused to one half of YFP (BiFC) (Arabidopsis thaliana) (UniProt O22476). As to the kind of experiment: split reporter; BiFC, one half of YFP on each protein, transient co-expression in N. benthamiana leaf epidermal cells, with (non-fluorescent) CLV2-HA co-expressed.
Test [7] deals with T2, CLV2 fused to one half of YFP (BiFC) (Arabidopsis thaliana) (UniProt O80809).
T2 sequence: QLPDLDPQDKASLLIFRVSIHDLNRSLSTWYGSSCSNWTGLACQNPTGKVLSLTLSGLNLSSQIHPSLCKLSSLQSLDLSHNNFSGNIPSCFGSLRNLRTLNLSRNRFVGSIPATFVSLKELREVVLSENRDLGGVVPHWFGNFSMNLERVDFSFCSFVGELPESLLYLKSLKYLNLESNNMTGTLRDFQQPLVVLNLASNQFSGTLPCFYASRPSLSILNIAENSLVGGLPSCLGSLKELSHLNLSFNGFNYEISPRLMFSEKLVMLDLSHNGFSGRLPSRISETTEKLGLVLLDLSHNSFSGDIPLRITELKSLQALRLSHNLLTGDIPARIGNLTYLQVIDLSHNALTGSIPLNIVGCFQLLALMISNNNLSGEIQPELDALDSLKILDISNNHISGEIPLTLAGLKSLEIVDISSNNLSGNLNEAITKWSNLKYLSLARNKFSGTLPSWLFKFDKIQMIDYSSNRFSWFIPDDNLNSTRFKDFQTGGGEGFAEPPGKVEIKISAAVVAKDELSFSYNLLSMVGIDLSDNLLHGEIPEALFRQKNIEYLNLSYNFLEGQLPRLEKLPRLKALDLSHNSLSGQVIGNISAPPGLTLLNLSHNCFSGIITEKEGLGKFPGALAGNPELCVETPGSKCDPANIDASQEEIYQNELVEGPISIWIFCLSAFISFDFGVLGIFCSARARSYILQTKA
Put plainly: split reporter; BiFC, one half of YFP on each protein, transient co-expression in N. benthamiana leaf epidermal cells, without CLV2-HA (CLV2 + CRN also with co-expressed BAM3-mTFP1).

Test [8] concerns the target T1, BAM3 extracellular domain (BAM3-ECD) (Arabidopsis thaliana). Put plainly: condition: 100 μg of SERK3‐ECD and equimolar BAM3‐ECD with 25 μM CLE45; SEC; analytical gel filtration in the presence of 25 μM CLE45, equimolar ectodomains, 10 min incubation; Superdex Increase 200, 20 mM citrate pH 5, 150 mM NaCl; both purified.

Results are given in words; binding and its absence hold for the method and conditions named. For part of these data: Binding seen in cells or lysates may run through a third protein. Some results given as binding are weak or reduced against the parent protein; the word gives no strength. For part of these data: Tags and fused reporters may be left off the sequences shown.

B1: BAM3 extracellular domain (BAM3-ECD) (domain or fragment, UniProt O65440 30-651)
chain: T1 sequence
On to B1, for which the binding result in test [1] is “no binding”.

B2: SERK1 extracellular domain (SERK1-ECD) (domain or fragment, UniProt Q94AG2 24-213)
chain: ASANLEGDALHTLRVTLVDPNNVLQSWDPTLVNPCTWFHVTCNNENSVIRVDLGNAELSGHLVPELGVLKNLQYLELYSNNITGPIPSNLGNLTNLVSLDLYLNSFSGPIPESLGKLSKLRFLRLNNNSLTGSIPMSLTNITTLQVLDLSNNRLSGSVPDNGSFSLFTPISFANNLDLCGPVTSHPCPGS
For B2, the binding entry in test [2] is “no binding”; in test [3], “no binding”; in test [4] it was “no binding (tested: 100 μg of SERK1‐ECD)”; in test [5], “no binding”.

B3: CRN fused to one half of YFP (BiFC) (protein, UniProt Q9LYU7 34-401)
chain: TSCRRRTVKHLSTTSTSSTPLESRITSKVIVISIVSGILTGLVSALVLAFLVRSIVKFMKQTPILKGPVVFSPKITPKSLHAALSNGIQLLGSDLNGKYYKMVLDNGLVVAVKRLGSLEGVGSPESSSSKSVKRRLQKELELLAGLRHRNLMSLRAYVRESDEFSLVYDYMPNGSLEDVMNKVRTKEVELGWEIRLRVAVGIVKGLQYLHFSCETQILHYNLKPTNVMLDSEFEPRLADCGLAKIMPSSHTAVSCYSAPESSQSNRYTDKSDIFSFGMILGVLLTGRDPTHPFCEESASGGSLGQWLKHLQQSGEAREALDKTILGEEVEEDEMLMALRITIICLSDFPADRPSSDELVHMLTQLHSF
As to B3, the binding entry is recorded as “no binding” in test [6] and “binds” in test [7].

B4: SERK3 extracellular domain (SERK3-ECD) (domain or fragment, UniProt Q94F62 26-220)
chain: NAEGDALSALKNSLADPNKVLQSWDATLVTPCTWFHVTCNSDNSVTRVDLGNANLSGQLVMQLGQLPNLQYLELYSNNITGTIPEQLGNLTELVSLDLYLNNLSGPIPSTLGRLKKLRFLRLNNNSLSGEIPRSLTAVLTLQVLDLSNNPLTGDIPVNGSFSLFTPISFANTKLTPLPASPPPPISPTPPSPAGS
For B4, the binding result in test [8] and in test [1] was “no binding” each time.
